# Test results from PMC7819943, “Rice protein-binding microarrays: a tool to detect cis-acting elements near promoter regions in rice”.
# Amino acid sequences for entries named in this document (tags omitted).
# UniProt Q0JBA9, entry or part of it: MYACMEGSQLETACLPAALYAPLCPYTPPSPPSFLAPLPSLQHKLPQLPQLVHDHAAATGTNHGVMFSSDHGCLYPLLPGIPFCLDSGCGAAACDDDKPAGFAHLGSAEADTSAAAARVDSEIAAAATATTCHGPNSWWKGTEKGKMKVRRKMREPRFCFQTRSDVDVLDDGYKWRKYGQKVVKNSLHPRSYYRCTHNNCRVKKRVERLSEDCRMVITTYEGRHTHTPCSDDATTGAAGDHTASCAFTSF
# The other results are listed elsewhere or left out.
# Biological target: OsWRKY34 (Oryza sativa, UniProt Q0JBA9 1-250)
# Experiment: protein-binding microarray (RPBM); PBS, 2% BSA, 51.3 ng/ul salmon testes DNA, 50 uM zinc acetate, 200 nM TF, 25 C, 1 h; high values mean tight binding
# Details: protein: recombinant; tags: N-terminal polyhistidine and DsRed monomer fusion (pET32a); label: CyDye5-dUTP incorporated in the synthesized complementary strand; 3' TTTTT single-stranded linker to array surface; dsDNA, one strand shown
# Procedure, shortened: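 Using Ni–NTA, transcription factors fused N-terminally to polyhistidine and DsRed were purified after expression in E. coli BL21-CodonPlus. These were incubated at 200 nM with a blocked, double-stranded custom Agilent array for 1 h at 25 °C in a buffer containing 50 µM zinc acetate, and the array was washed. The binding signal is per-feature fluorescence intensity (arbitrary units) on an Axon 4000B scanner.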
row,Sequence,binding signal
1,TCGATTCCCGGGTGCACTCGCCGCCAACACCTCACCCGCCCGGAGTCACCTAGTGCAG,8790 fluorescence intensity (a.u.)
2,ACAGCGACGGGAGGGGAGGGATCGCGCGTTCTCGATTCGGCGGAGTCACCTAGTGCAG,10500 fluorescence intensity (a.u.)
3,CAATAGTTCATATACTAGTTGAATGCCTGTGCCTTCCAACCGGAGTCACCTAGTGCAG,8580 fluorescence intensity (a.u.)
4,GGAAGATTGTTCTCTTCGGATCATTGCTGTCTGGGGTATGCGGAGTCACCTAGTGCAG,10700 fluorescence intensity (a.u.)
5,GGGTGTTGTCGTTCCTTAAGGGCTAAGCTGTTGGAAACAACGGAGTCACCTAGTGCAG,8330 fluorescence intensity (a.u.)
6,CGGGTGTTGGGTGTTTTCAACTCTAATTCGGGCGAGCAATCGGAGTCACCTAGTGCAG,11100 fluorescence intensity (a.u.)
7,TTCTTTTTTCTTTTACGCGATATACTCGACGACTACTCCGCGGAGTCACCTAGTGCAG,10200 fluorescence intensity (a.u.)
8,ACCCATGATATTCACTGAAACTTCTGATATTGACCATGACCGGAGTCACCTAGTGCAG,8430 fluorescence intensity (a.u.)
9,GCCTTTTTTCCTTTGTCTTTTTCCGGCCCGCGTTCTTTTTCGGAGTCACCTAGTGCAG,17400 fluorescence intensity (a.u.)
10,TTTATAACTCCTATACGTTTGTCCCTATAAACAAGATACACGGAGTCACCTAGTGCAG,8500 fluorescence intensity (a.u.)
11,ACTTACTTTCGGCCATTATTCATGTAGTAGTAGGATACTTCGGAGTCACCTAGTGCAG,8030 fluorescence intensity (a.u.)
12,GTCCGTTCACCTCTCCGTAACCGTGCTCCAGCCGCTTCTTCGGAGTCACCTAGTGCAG,9570 fluorescence intensity (a.u.)
13,TTATTTTACGACCTTTTCTTTTAAATCGCTATGAATGTGTCGGAGTCACCTAGTGCAG,8800 fluorescence intensity (a.u.)
14,AGTGAGTGGTTTTCTCTTGACAAATCTTTTTTATACTATACGGAGTCACCTAGTGCAG,8480 fluorescence intensity (a.u.)
15,TGGTGGGTGGTTGATTGATTGTTCTTTCCTTCCTCGTGAGCGGAGTCACCTAGTGCAG,11800 fluorescence intensity (a.u.)
16,CCCCGCTTTCCCGCGGCTTAAAAACCTTTCCATCTCCAACCGGAGTCACCTAGTGCAG,9730 fluorescence intensity (a.u.)
17,TGCAATGCATCTCCATGAATATTTGTTTGTATTTAAGTCCCGGAGTCACCTAGTGCAG,9350 fluorescence intensity (a.u.)
18,ACGTGCGCCAACTTAATCTTCATCTTCATCAGTTTTAAACCGGAGTCACCTAGTGCAG,8830 fluorescence intensity (a.u.)
19,ATTATCTATTTTGGCCAATTGTATTATTTCCTTGCGTATTCGGAGTCACCTAGTGCAG,14600 fluorescence intensity (a.u.)
20,TGCCAGTGCTATCCGTCGCCACCTACCACCTTACAACGGTCGGAGTCACCTAGTGCAG,9400 fluorescence intensity (a.u.)
21,TTTTTTCCATCCAGCTATTCAAGATGCTAGTGTTTTTTTTCGGAGTCACCTAGTGCAG,10400 fluorescence intensity (a.u.)
22,CGTAGGCCACGCCACCTCACCCTGTTGACCGAGTCAAACCCGGAGTCACCTAGTGCAG,11900 fluorescence intensity (a.u.)
23,ACGACGAGTACACCATTTCCTGTCCCACGGCATTAACCGACGGAGTCACCTAGTGCAG,11700 fluorescence intensity (a.u.)

# Given tab-delimited: part of the list above.
row	Sequence	binding signal
3	CAATAGTTCATATACTAGTTGAATGCCTGTGCCTTCCAACCGGAGTCACCTAGTGCAG	8580 fluorescence intensity (a.u.)
7	TTCTTTTTTCTTTTACGCGATATACTCGACGACTACTCCGCGGAGTCACCTAGTGCAG	10200 fluorescence intensity (a.u.)
